{"source": "paper PMC10163288", "binders": {"B1": {"name": "il2ra_site1_3nfp_sap_12_mot_HHH_b1_01231_af2_000000170_0001_1_16_H_._HHH_b2_05578_af2_0001_0000100006_0000001_0_0001_af2pred_0001_af2pred_1 (protein)", "chain": "SSSSSEELEELRELIRELQELREEGDEERAREVAERAEELAERLNDRSARRSVRIAKKLLSSSSS"}, "B2": {"name": "il2ra_site1_1z92_sap_7_mot_HHH_b2_05172_af2_000000284_0001_1_18_H_._HHH_b2_00134_af2_0001_0000200012_0000001_0_0001_af2pred_0001_af2pred_1 (protein)", "chain": "NIRESVEELLRELGDPEEVAKELIEYARRAGSPPEFVRKFVRAILRRLLNIPPEEAEEIVRRAEK"}, "B3": {"name": "il2ra_site1_1z92_normal_mot_add8a691351788dd45ba4deda1838316_0001_1_000000225_0001_37_51_H_._HEEHE_0134_0001_0000100007_0000001_0_af2pred_0001_af2pred_1 (protein)", "chain": "SDEELVRKAIEDIARIVGVPSVTVEVKDGEIEVRFEGNDQKARTAAKIVEKLLKAAGLTAEVEVE"}, "B4": {"name": "il2ra_site2_2erj_sap_19_mot_HHH_b1_03702_000000266_0001_38_56_H_._d18551acd042526603bd7f0d0960009a_0001_0001_0000200008_0000001_0_0001_af2pred_0001_1_af2pred_sw … (protein)", "chain": "SSSSDEELRRRVEEFAEELVKELGLSRSDKLLLLSFALALVERGASEEWIEELLKRLAKNASSSS"}, "B5": {"name": "il2ra_site1_3nfp_normal_mot_40e86e4e32a25ee6cbb7392bdf050625_0001_1_000000004_0001_1_15_H_._HHH_b1_06407_af2_0001_0000100001_0000001_0 (protein)", "chain": "SSSSSSEEATELFKQVKELLKEGDKEEIEKILERLKELAEELNDPLLERLVRQYEEALKRRSSSS"}, "B6": {"name": "il2ra_site1_1z92_sap_13_mot_HHH_b1_07624_af2_000000183_0001_1_21_H_._HHH_b2_06189_0001_0000100001_0000001_1_0001 (protein)", "chain": "SSSSTDEAARIVLRIVNEVARKFNLSDEEFLELLRLADELLIKGYSEEEIKEILEELAEKSSSSS"}, "B7": {"name": "il2ra_site2_2erj_sap_17_mot_HHH_b2_05720_000000165_0001_1_18_H_._HHH_b2_07625_af2_0001_0000700024_0000001_0_0001 (protein)", "chain": "SSSSSDEEEREAERITEEIEERIDDPEERLREFFRVAVELLREGDPRTAHILLRLAQEGSSSSSS"}, "B8": {"name": "il2ra_site1_1z92_normal_mot_30aa582283ecb64a35315be28fff3e94_0001_000000110_0001_35_49_H_._HHH_b2_06812_0001_0000100001_0000001_0_af2pred_0001_af2pred_1 (protein)", "chain": "SSSSSLERAARRLVEDAVRMAGLSEEEQKELEELAERLVEEGVSALEIAKILEKFVRELLSSSSS"}, "B9": {"name": "il2ra_site2_3nfp_sap_17_mot_HHH_b2_02902_af2_000000043_0001_44_57_H_._85951a6590fc85ab439bb9084ebbbcb9_0001_0001_0000300012_0000001_0_0001 (protein)", "chain": "SSSSDEERREAEELFEELQELLEENDKFEVMQVLVKLFELASETGDEEAAELVIKIYKQALSSSS"}, "B10": {"name": "il2ra_site2_3nfp_normal_mot_HHH_b2_02437_000000052_0001_42_56_H_._HHH_b2_00069_af2_0001_0000300011_0000001_0 (protein)", "chain": "SSSSSDEEVQERVKELLEEAEKTSDPEERERLLAEATQLAYELRDSELFYLIAEVLYELGSSSSS"}, "B11": {"name": "il2ra_site2_3nfp_sap_16_mot_HHH_b2_07498_000000057_0001_1_14_H_._HHH_b1_00658_0001_0001300048_0000001_0_0001 (protein)", "chain": "SDEKAELANEAAQIALRLSKSPDPEDARVALEIYKLLREAYEVPDEEESKEILEEAVELARRYSS"}, "B12": {"name": "il2ra_site1_2b5i_normal_mot_517d2b11c41c928dd1a3662be3bb3df0_0001_000000298_0001_37_51_H_._HHH_b1_05252_af2_0001_0000300021_0000001_0_af2pred_dldesign_0_af2pred (protein)", "chain": "SSSSPEEEFHRLADEIDDLVAAGRLDEARALLAELQALAEAMKDPKLIKFARDRARYLERRESSS"}, "B13": {"name": "il2ra_site2_2erj_sap_19_mot_HHH_b2_03015_000000099_0001_44_57_H_._HHH_b2_04873_0001_0000200010_0000001_0_0001_af2pred_0001_1_af2pred_swapped (protein)", "chain": "SSSSSEELAKFTQEVAREADELAENGNPEEARRVLEEAREFLKEHGNKNLIRNVERELKRISSSS"}, "B14": {"name": "il2ra_site2_2erj_normal_mot_HHH_b1_02757_000000121_0001_41_57_H_._HHH_b1_08327_0001_0000300020_0000001_0_af2pred_0001_1_af2pred_swapped (protein)", "chain": "SSSSSSDHEEEVERLLEEAKHVPDIREALKLLRQAAQIAIRNDNEELFELVTEVLRRSSSSSSSS"}, "B15": {"name": "il2ra_site1_1z92_normal_mot_HHH_b2_05373_af2_000000032_0001_24_40_H_._66959ead3e6c57cb3ef8243f3eb758e0_0001_1_af2_0001_0000200020_0000001_0_af2pred_0001_af2pred (protein)", "chain": "SLAEEDLEEAVEKNDEELLRRFIELLLKDVGDPELVRQLLKQLVKRLGLPPEVLERLRELLEELT"}, "B16": {"name": "il2ra_site2_2erj_sap_26_mot_HHH_b2_02430_000000062_0001_23_40_H_._HHH_b1_08172_af2_0001_0000400031_0000001_0_0001 (protein)", "chain": "SSSSDKLRRLYELANELLHLVSRGDEERFEEVAEEVRELVEELNSDTAREVLEVLERLIKSSSSS"}, "B17": {"name": "il2ra_site1_1z92_sap_19_mot_HEEHE_1462_000000005_0001_40_55_H_._2ec892f5ef7028bbd55197b25474b143_0001_0001_0000100004_0000001_0_0001_af2pred_0001_af2pred (protein)", "chain": "SSSSDERKEANARIVVELAVRTANLSEEDREELEELAEELVKRGVSWEELARILDEIANKLSSSS"}, "B18": {"name": "il2ra_site1_2b5i_normal_mot_22370d59370c406a0c205a431f537cfa_0001_af2_000000141_0001_1_31_H_._HHH_b1_03885_0001_0000200019_0000001_0 (protein)", "chain": "SSSDEEERTRLAVEIVWRLRYEYNLSNEDARLLNRLAAELVDEGVSEEEIEEILRRLAEELSSSS"}}, "note": "Some of the results follow."}
{"molecular_target": "il2ra, P01589", "assay": "yeast display titration"}
{"binder": "B1", "apparent Kd": "inactive: no binding seen"}
{"binder": "B2", "apparent Kd": "inactive: no binding seen"}
{"binder": "B3", "apparent Kd": "inactive: no binding seen"}
{"binder": "B4", "apparent Kd": "inactive: no binding seen"}
{"binder": "B5", "apparent Kd": "inactive: no binding seen"}
{"binder": "B6", "apparent Kd": "inactive: no binding seen"}
{"binder": "B7", "apparent Kd": "inactive: no binding seen"}
{"binder": "B8", "apparent Kd": "inactive: no binding seen"}
{"binder": "B9", "apparent Kd": "inactive: no binding seen"}
{"binder": "B10", "apparent Kd": "inactive: no binding seen"}
{"binder": "B11", "apparent Kd": "inactive: no binding seen"}
{"binder": "B12", "apparent Kd": "inactive: no binding seen"}
{"binder": "B13", "apparent Kd": "inactive: no binding seen"}
{"binder": "B14", "apparent Kd": "inactive: no binding seen"}
{"binder": "B15", "apparent Kd": "inactive: no binding seen"}
{"binder": "B16", "apparent Kd": "inactive: no binding seen"}
{"binder": "B17", "apparent Kd": "inactive: no binding seen"}
{"binder": "B18", "apparent Kd": "inactive: no binding seen"}
